# Measured values as given in PubChem BioAssay AID540275 (National Center for Advancing Translational Sciences (NCATS), 2011).
# By UniProt entry, the sequences of proteins in these tests, tags left out.
# UniProt Q8NER1, whole entry, looked up: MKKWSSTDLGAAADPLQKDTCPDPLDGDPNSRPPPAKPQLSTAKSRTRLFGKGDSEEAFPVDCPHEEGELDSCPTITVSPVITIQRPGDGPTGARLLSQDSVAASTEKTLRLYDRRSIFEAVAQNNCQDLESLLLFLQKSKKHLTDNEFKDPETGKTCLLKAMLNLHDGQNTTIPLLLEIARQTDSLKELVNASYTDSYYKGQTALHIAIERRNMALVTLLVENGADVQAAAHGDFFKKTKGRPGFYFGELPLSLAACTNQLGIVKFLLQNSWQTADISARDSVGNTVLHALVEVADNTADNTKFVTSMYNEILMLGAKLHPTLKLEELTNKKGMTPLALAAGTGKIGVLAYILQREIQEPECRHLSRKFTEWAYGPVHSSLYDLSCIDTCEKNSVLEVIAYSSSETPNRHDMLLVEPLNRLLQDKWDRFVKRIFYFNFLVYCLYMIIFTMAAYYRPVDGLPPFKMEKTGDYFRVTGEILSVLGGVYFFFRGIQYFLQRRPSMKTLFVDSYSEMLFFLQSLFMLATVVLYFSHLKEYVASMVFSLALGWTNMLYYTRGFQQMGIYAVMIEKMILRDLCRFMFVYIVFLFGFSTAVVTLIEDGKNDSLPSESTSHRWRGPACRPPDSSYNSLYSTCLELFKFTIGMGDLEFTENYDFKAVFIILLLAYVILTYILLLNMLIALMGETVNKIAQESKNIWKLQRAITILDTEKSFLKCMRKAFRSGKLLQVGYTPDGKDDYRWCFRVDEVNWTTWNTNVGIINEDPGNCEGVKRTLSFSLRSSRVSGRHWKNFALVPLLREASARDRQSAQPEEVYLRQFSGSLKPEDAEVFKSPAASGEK
# The campaign covered roughly 320,000 compounds. About 620 (0.19%) were called active. The inconclusive results got no clear call from the source; some entries with a clear call stand among them for comparison. Cut-off read from the data, not from the text of the source: active = activation above about 80%; inconclusive = between about 30% and that limit; inactive = weaker than that.
# Biological target: Transient receptor potential cation channel subfamily V member 1 (Homo sapiens) (UniProt Q8NER1)
# Assay: HTS Assay for Compounds that Act as Agonists of the Vanilloid Receptor 1; note: 0% is about no effect
# Settings: TRPV1-expressing cells, Fluo-8 calcium influx, agonist mode; at 8.33 µM, active compounds read high
# Summary of the method: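 TRPV1-expressing cells were cultured overnight at 35.5C and loaded with Fluo-8 calcium dye for 40 to 90 min at room temperature. After a 10 s baseline, compound was added and calcium influx was read kinetically for 3 min (ex 480/em 520 nm).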
row,SMILES,activation
1,Cc1ccc(CNC(=O)CCC2CCCN(Cc3cccc4ncccc34)C2)o1 (stereo unspecified),inconclusive: 55.4%
2,CC1=C(C(=O)OC(C)C)C(C)C(C(=O)OC(C)C)=C(C)N1,inconclusive: 31.5%
3,CCOc1cc(C)cc2oc(=O)cc(-c3ccccc3)c12,inconclusive: 33.4%
4,Cc1ccc(CNC(=O)COc2ccccc2-c2ccccc2)cc1,inconclusive: 40.8%
5,O=C(c1ccsc1)N1CCCC(Nc2ccc(F)c(F)c2)C1 (stereo unspecified),inconclusive: 62.2%
6,COC(=O)C1=CN(CC2CCCO2)C=C(C(=O)OC)C1c1ccccc1C(F)(F)F (stereo unspecified),inconclusive: 42.3%
7,Cc1ccc(CNC(=O)c2cc(C3CC3)nc3c2cnn3C(C)C)cc1,inconclusive: 49%
8,CCc1cc(=O)[nH]c(SCc2ccc(C)cc2)n1,inactive: -1.31%
9,Cc1ccc(C)c(OCc2cc(C(=O)N3CCc4sccc4C3)no2)c1,inconclusive: 62.5%
10,O=C(Nc1ccc(Cl)cn1)c1cccc(S(=O)(=O)N2CCOCC2)c1,inconclusive: 68%
11,CC(C)c1onc(C(=O)NCCc2ccccc2)c1[N+](=O)[O-],inconclusive: 44.9%
12,CC(=O)Nc1nc(-c2cccc3ccccc23)cs1,inactive: 11.2%
13,O=[N+]([O-])c1cc(/C=N\Nc2nc(-c3ccccc3)cs2)ccc1O,inactive: 2.78%
14,CCC(C)NC(=O)[C@H](CSCc1ccccc1)N1Cc2ccccc2C1=O (stereo partly specified),inconclusive: 42.6%
15,O=[N+]([O-])c1ccc(Nc2nc(NC3CCCCC3)nc(N3CCCC3)n2)cc1,inactive: 20.9%
16,Cc1ccccc1NC(=O)/C=C/c1cccc(C(F)(F)F)c1,inconclusive: 70.6%
17,OC(CN1CCCCC1)CN(c1ccccc1)c1ccccc1 (stereo unspecified),inactive: 2.99%
18,Cc1ccc(-c2cn3c(n2)CCCC3)cc1,inconclusive: 45.6%
19,O=C(c1cnn2c(C(F)F)cc(-c3ccccc3)nc12)N1CCCCC1c1cccnc1 (stereo unspecified),inconclusive: 32%
20,CC1Sc2ccc(S(=O)(=O)NCCc3ccccc3)cc2NC1=O (stereo unspecified),inconclusive: 34.7%
21,COc1ccc(C(=O)NCCCc2nc3ccccc3n2Cc2cc(C)ccc2C)cc1OC,inconclusive: 59.6%
22,Cc1ccc2[nH]cc(CCNC(=O)c3cccs3)c2c1,inconclusive: 34.2%
23,FC(F)(F)c1ccccc1N/N=C/c1cccnc1,inconclusive: 54.8%
24,COc1ccccc1-c1cc(C(=O)NCc2ccc(F)cc2)no1,inconclusive: 33.5%
25,O=C(Nc1ccccc1)c1ccc(NC2CCCCC2)c(S(=O)(=O)N2CCOCC2)c1,active: 86.5%
26,CCCCN1C(=O)c2ccc(C(=O)Nc3cccc(C)c3C)cc2C1=O,inconclusive: 35.3%
